Results on one compound are retold here after US5837548A, “Treatment of inflammation by inhibition of lipid body formation” (Beth Israel Hospital, priority 1995, dated 1998).

In the test the test system is human neutrophils. Briefly: cis-unsaturated fatty acid-induced lipid body formation in human neutrophils (osmium staining, light microscopy enumeration). It is filed as cell-based. Here is the method:
Neutrophils were purified from fresh human blood obtained by venipuncture from healthy adult volunteers and collected into acidified citrate. After addition of 6% dextran 70 (McGaw, Irvine, Calif.), RBCs were allowed to sediment for 1 hour at room temperature. The leukocyte-rich supernatant was overlaid onto an equal volume of Ficoll-Paque gradient (Piscataway, N.J.), and centrifuged at 400×g for 20 min. […] Residual RBCs were lysed with hypotonic saline.
Human leukocytes (10^6 cells/mL) were incubated with varying concentrations of arachidonic acid (AA), oleic acid (OA) or vehicle at 37° C. in a 5% CO2 /95% O2 atmosphere, and after 1 hour leukocytes (10^5 cells per slide) were cytocentrifuged (550 rpm, 5 min) onto glass slides. […]
Results were expressed as mean±SEM and were analyzed statistically by means of the analysis of variance followed by the Newman-Keuls-Student test with the level of significance set at p<0.05. Correlation coefficients were determined by linear regression, and correlation analysis was performed by Fisher's r to z transformation with the level of significance set at p<0.05. […]
Results are mean ± SEM from fifty consecutively counted neutrophils. […]
calculated after subtracting out the basal number of lipid bodies/PMN […]
± SEM from fifty consecutively counted neutrophils. […]
represented by an asterisk (*). Percent inhibition has been calculated […]

Turning to `CN[C@@H]1C[C@H]2O[C@@](C)([C@@H]1OC)n1c3ccccc3c3c4c(c5c6ccccc6n2c5c31)C(=O)NC4` [staurosporine], the “inhibition of arachidonic acid-induced lipid body formation” value was “significantly inhibited” and the “inhibition of oleic acid-induced lipid body formation” value is on record as “significantly inhibited”.
